The assay concerns HEK293A TEAD-LUC reporter. As to the kind of experiment: TEAD-luciferase reporter activity (YAP activation), robust Z score vs plate; higher = stronger YAP/TEAD activation. Conditions: 24 h. On the technique in general: In a reporter assay the amount or activity of a reporter protein is the signal.

Counter-ions that a name gives are not always drawn. The list shows a part of the results. This data set is noisy: repeats of one test often differ as much as different tests do.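 In a drug-repurposing library screen, luminescence reads luciferase driven by eight TEAD-binding elements, stably integrated into human kidney-derived cells. Compounds scoring over five robust Z scores above the plate mean are called hits.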

For `O=C(O)CC(c1ccc(OC2CCCC2)cc1)N1C(=O)c2ccccc2C1=O` (centres undefined), the TEAD-luciferase reporter activity reads like this: (compound concentration: 200 nM) inactive: -2.15; (compound concentration: 2 uM) inactive: 0.764; (compound concentration: 10 uM) inactive: 1.08.

Consider `CCCc1ccc(C(O)Cn2ccnc2)cc1` (centres undefined), for which the TEAD-luciferase reporter activity was inactive: 0.0564 (compound concentration: 200 nM), inactive: -0.0234 (compound concentration: 2 uM) and inactive: 2.42 (compound concentration: 10 uM).

Consider `CC(=O)O[C@]1(C(C)=O)CC[C@H]2[C@@H]3C=C(C)C4=CC(=O)CC[C@@H]4[C@H]3CC[C@@]21C` [Nomegestrol acetate], for which the TEAD-luciferase reporter activity (compound concentration: 200 nM) was inactive: -0.579, the TEAD-luciferase reporter activity (compound concentration: 2 uM) is inactive: -0.136 and the TEAD-luciferase reporter activity (compound concentration: 10 uM) is inactive: -1.06.

In the case of `CCCCc1ccc(CN(CC2CC2)S(C)(=O)=O)c(=O)n1Cc1ccc(-c2ccccc2-c2nn[nH]n2)cc1`, the TEAD-luciferase reporter activity is, setting by setting: (compound concentration: 200 nM) inactive: -0.846; (compound concentration: 2 uM) inactive: -0.974; (compound concentration: 10 uM) inactive: 2.35.

On to `Cc1nc(-c2cnn(C)c2-c2ccc(C(F)(F)F)cn2)c2c(N3CCC3)ncnn12`, for which the TEAD-luciferase reporter activity (compound concentration: 200 nM) is inactive: -1.99, the TEAD-luciferase reporter activity (compound concentration: 2 uM) was inactive: -0.315 and the TEAD-luciferase reporter activity (compound concentration: 10 uM) is inactive: 0.156.

In the case of `CC(C)(C)NC(=O)[C@@H]1CN(Cc2cccnc2)CCN1C[C@@H](O)C[C@H](Cc1ccccc1)C(=O)N[C@H]1c2ccccc2C[C@H]1O` [Indinavir Sulfate], the TEAD-luciferase reporter activity was inactive: 0.269 (compound concentration: 200 nM), inactive: 0.746 (compound concentration: 2 uM) and inactive: -0.476 (compound concentration: 10 uM).

For the compound `CC1=C(/C=C/C(C)=C/C=C/C(C)=C/C(=O)Oc2c(C)c(C)c3c(c2C)CC[C@@](C)(CCC[C@H](C)CCC[C@H](C)CCCC(C)C)O3)C(C)(C)CCC1`, the TEAD-luciferase reporter activity (compound concentration: 2 uM) was inactive: -1.6.

Turning to `CC1=C(/C=C/C(C)=C/C=C/C(C)=C/C(=O)Oc2c(C)c(C)c3c(c2C)CC[C@@](C)(CCC[C@H](C)CCC[C@H](C)CCCC(C)C)O3)C(C)(C)CCC1` [Tretinoin tocoferil], the TEAD-luciferase reporter activity by setting is: (compound concentration: 200 nM) inactive: -1.2; (compound concentration: 10 uM) inactive: 2.01.

As for `COc1ccc(-c2cc(=S)ss2)cc1` [anethole dithiolethione], for the setting “compound concentration: 2 uM”, the TEAD-luciferase reporter activity is inactive: -0.64.

As for `COc1ccc(-c2cc(=S)ss2)cc1` [Anethole dithiolethione], the TEAD-luciferase reporter activity (compound concentration: 200 nM) is inactive: 0.177, the TEAD-luciferase reporter activity (compound concentration: 2 uM) is inactive: -0.0771 and the TEAD-luciferase reporter activity (compound concentration: 10 uM) is inactive: -0.557.

In the case of `CNCC(=O)O` [Sarcosine], the TEAD-luciferase reporter activity reads like this: (compound concentration: 200 nM) inactive: -1.07; (compound concentration: 2 uM) inactive: -1.74; (compound concentration: 10 uM) inactive: -1.5.

Regarding `Cc1nc(NC(=O)N2CCC[C@H]2C(N)=O)sc1-c1ccnc(C(C)(C)C(F)(F)F)c1` [alpelisib], the TEAD-luciferase reporter activity is inactive: -0.175 (compound concentration: 200 nM), inactive: -2.3 (compound concentration: 2 uM) and inactive: -1.35 (compound concentration: 10 uM).

On to `CCOC(=O)[C@H](CCSC)NC(=O)C(CSC(C)=O)Cc1ccccc1C` (some centres undefined), for which the TEAD-luciferase reporter activity runs as follows: (compound concentration: 200 nM) inactive: -1.33; (compound concentration: 2 uM) inactive: 0.152; (compound concentration: 10 uM) inactive: 0.705.

Turning to `NS(=O)(=O)c1cccc2c1c([N+](=O)[O-])cc1[nH]c(=O)c(=O)[nH]c12`, the TEAD-luciferase reporter activity is, setting by setting: (compound concentration: 200 nM) inactive: -2.05; (compound concentration: 2 uM) inactive: -0.262; (compound concentration: 10 uM) inactive: 2.06.

Take `O=C1c2ccccc2S(=O)(=O)N1CCCCN1CCN(c2ncccn2)CC1` [Ipsapirone]: the TEAD-luciferase reporter activity reads like this: (compound concentration: 200 nM) inactive: -0.752; (compound concentration: 2 uM) inactive: -0.908; (compound concentration: 10 uM) inactive: -0.362.

As for `COc1cccc(C=O)c1O`, the TEAD-luciferase reporter activity (compound concentration: 200 nM) is inactive: -2, the TEAD-luciferase reporter activity (compound concentration: 2 uM) was inactive: -0.624 and the TEAD-luciferase reporter activity (compound concentration: 10 uM) is inactive: 1.93.

Take `CC(=O)Nc1ccc(C(=O)NC(C)(C)C)cc1`: the TEAD-luciferase reporter activity (compound concentration: 200 nM) was inactive: 4.72, the TEAD-luciferase reporter activity (compound concentration: 2 uM) is inactive: -0.677 and the TEAD-luciferase reporter activity (compound concentration: 10 uM) was inactive: 0.0192.

As to `CC(C)(S)C(=O)N[C@@H](CS)C(=O)O` [bucillamine], the TEAD-luciferase reporter activity is inactive: 0.649 (compound concentration: 200 nM), inactive: 1.89 (compound concentration: 2 uM) and inactive: -0.718 (compound concentration: 10 uM).

On to `CCCCCCCC(=O)OCC(O)CO` (centres undefined), for which the TEAD-luciferase reporter activity was inactive: 2.37 (compound concentration: 200 nM) and inactive: -0.45 (compound concentration: 10 uM).

Turning to `CCCCCCCC(=O)OCC(O)CO` (centres undefined) [Monoctanoin], the TEAD-luciferase reporter activity (compound concentration: 2 uM) was inactive: -0.331.

As to `CCNC(=O)[C@H]1C[C@@H](n2cnc3c(N[C@H](CC)Cc4sccc4Cl)ccnc32)[C@H](O)[C@@H]1O`, the TEAD-luciferase reporter activity reads like this: (compound concentration: 200 nM) inactive: 0.91; (compound concentration: 2 uM) inactive: -0.24; (compound concentration: 10 uM) inactive: 0.151.

As to `O=C(OC(CCN1CCCCC1)c1ccccc1)c1ccccc1` (centres undefined), the TEAD-luciferase reporter activity reads like this: (compound concentration: 200 nM) inactive: 2.4; (compound concentration: 2 uM) inactive: 3.03; (compound concentration: 10 uM) inactive: 0.86.

Take `COC(CCN(C)C)(c1ccccc1)c1ccccc1`: the TEAD-luciferase reporter activity is, setting by setting: (compound concentration: 200 nM) inactive: -1.04; (compound concentration: 2 uM) inactive: 1.87; (compound concentration: 10 uM) inactive: 0.581.

As for `Cc1cccc(N2CCN(CCCCN3C(=O)CNC3=O)CC2)c1`, the TEAD-luciferase reporter activity (compound concentration: 200 nM) was inactive: -0.0312, the TEAD-luciferase reporter activity (compound concentration: 2 uM) was inactive: -1.82 and the TEAD-luciferase reporter activity (compound concentration: 10 uM) was inactive: -0.376.

Take `CN(C)CC(=O)N1Cc2ccccc2CC2(CCCCN2C)C1` (centres undefined): the TEAD-luciferase reporter activity is inactive: 0.159 (compound concentration: 200 nM) and inactive: 1.56 (compound concentration: 10 uM).

`CC(C)(OCc1ccc(-c2ccc(Cl)cc2)cc1)C(=O)O` [clobuzarit]: the TEAD-luciferase reporter activity was inactive: -0.184 (compound concentration: 200 nM), inactive: -1.1 (compound concentration: 2 uM) and inactive: 1.16 (compound concentration: 10 uM).

(Values after the supplement of paper PMC10735217.)
